The record followed here is article doi:10.1101/2021.03.08.433705.

By UniProt entry, the sequences of proteins in these tests, tags left out. Where a name states a change or a piece, a line headed by the entry shows the natural chain unless it says otherwise. Residues count along the entry.
UniProt Q9BSM1: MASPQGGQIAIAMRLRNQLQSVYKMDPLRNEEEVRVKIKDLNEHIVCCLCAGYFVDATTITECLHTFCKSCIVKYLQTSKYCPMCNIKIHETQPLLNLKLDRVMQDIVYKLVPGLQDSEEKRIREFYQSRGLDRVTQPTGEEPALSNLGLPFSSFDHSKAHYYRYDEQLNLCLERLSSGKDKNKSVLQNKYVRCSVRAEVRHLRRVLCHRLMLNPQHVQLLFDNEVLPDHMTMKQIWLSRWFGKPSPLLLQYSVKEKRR
UniProt Q6W2J9: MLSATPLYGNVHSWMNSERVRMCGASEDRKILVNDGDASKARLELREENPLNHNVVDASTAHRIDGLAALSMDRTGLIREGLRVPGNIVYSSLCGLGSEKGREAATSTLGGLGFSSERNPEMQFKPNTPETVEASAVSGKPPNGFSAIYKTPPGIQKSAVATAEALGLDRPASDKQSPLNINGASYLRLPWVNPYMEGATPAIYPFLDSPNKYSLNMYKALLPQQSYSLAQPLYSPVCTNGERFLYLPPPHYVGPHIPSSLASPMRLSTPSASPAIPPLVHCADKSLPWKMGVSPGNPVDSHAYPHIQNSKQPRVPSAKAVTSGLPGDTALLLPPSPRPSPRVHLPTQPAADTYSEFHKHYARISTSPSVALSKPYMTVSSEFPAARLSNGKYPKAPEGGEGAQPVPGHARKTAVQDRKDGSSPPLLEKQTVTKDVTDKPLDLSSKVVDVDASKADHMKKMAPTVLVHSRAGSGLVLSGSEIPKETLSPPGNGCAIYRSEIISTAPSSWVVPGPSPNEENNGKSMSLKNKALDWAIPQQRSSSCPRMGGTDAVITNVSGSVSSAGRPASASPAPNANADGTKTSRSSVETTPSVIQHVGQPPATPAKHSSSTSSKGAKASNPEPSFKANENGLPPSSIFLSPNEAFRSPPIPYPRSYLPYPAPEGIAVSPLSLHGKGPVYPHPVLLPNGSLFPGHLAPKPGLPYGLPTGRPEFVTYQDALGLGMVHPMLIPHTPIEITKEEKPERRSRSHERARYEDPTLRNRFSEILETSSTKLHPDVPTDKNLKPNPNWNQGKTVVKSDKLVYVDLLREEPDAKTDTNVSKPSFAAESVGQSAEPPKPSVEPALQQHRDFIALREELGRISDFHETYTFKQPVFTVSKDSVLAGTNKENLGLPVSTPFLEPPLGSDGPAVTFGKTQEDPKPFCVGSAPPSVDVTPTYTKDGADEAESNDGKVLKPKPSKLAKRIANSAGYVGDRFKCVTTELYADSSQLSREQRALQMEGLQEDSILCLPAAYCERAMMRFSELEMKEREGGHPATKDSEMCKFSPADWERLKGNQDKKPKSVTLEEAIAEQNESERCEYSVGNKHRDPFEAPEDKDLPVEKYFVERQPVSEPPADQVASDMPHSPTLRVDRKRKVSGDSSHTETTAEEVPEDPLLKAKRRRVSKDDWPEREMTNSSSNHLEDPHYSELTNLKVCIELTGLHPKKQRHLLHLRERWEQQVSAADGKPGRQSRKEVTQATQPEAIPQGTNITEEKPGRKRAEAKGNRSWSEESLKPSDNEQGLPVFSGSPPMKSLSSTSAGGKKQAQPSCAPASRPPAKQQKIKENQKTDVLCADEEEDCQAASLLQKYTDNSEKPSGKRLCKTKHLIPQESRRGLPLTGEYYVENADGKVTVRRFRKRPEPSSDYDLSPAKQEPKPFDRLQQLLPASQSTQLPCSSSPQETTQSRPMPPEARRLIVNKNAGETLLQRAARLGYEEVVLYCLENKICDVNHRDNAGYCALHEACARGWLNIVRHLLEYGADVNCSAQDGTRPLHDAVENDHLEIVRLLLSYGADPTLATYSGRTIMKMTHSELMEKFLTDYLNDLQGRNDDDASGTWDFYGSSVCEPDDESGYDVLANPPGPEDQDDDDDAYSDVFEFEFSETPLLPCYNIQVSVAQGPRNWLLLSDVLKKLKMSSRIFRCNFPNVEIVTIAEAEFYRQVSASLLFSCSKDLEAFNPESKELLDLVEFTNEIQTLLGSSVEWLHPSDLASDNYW
BCOR HA-PUFD (1635-1755aa): residues 1635-1755 of Q6W2J9
UniProt Q93009: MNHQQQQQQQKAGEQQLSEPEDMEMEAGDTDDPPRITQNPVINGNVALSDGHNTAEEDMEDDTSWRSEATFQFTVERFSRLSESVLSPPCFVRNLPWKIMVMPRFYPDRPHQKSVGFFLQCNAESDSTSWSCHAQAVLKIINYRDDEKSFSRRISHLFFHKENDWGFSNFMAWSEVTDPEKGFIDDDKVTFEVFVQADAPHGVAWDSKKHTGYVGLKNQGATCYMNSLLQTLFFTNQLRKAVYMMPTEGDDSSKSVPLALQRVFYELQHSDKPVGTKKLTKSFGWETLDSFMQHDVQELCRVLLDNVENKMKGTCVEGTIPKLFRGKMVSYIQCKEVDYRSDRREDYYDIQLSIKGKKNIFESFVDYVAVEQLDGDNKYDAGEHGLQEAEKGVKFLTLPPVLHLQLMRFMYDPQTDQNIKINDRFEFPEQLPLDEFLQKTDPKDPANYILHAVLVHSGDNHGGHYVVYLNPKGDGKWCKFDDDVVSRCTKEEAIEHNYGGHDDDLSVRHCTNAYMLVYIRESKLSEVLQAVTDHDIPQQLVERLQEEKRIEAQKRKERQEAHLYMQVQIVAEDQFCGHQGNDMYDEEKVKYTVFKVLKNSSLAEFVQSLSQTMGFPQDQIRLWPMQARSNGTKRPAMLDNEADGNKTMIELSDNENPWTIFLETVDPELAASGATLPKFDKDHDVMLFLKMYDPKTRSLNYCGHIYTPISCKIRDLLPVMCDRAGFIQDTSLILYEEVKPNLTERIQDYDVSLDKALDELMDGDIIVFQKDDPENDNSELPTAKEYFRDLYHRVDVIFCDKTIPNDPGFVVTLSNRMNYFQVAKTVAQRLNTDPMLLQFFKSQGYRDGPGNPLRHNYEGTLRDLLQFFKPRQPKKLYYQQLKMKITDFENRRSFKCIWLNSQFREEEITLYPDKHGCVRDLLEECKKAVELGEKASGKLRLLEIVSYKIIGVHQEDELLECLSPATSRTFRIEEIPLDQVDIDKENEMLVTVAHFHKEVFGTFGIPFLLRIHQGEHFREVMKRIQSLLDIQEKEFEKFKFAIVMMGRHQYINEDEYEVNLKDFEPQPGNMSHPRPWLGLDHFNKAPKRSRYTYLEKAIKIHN

Results are given in words; binding and its absence hold for the method and conditions named. Binding seen in cells or lysates may run through a third protein. Some entries that bind do so weakly or less than the wild type.

What all share (test): co-IP
The target in experiment [1] is PCGF1 (endogenous) (human (endogenous in K562, MOLM14)) (UniProt Q9BSM1).
The target of experiment [2] is T1, KDM2B (endogenous) (human (endogenous in K562, MOLM14)) (UniProt Q8NHM5).
T1 sequence: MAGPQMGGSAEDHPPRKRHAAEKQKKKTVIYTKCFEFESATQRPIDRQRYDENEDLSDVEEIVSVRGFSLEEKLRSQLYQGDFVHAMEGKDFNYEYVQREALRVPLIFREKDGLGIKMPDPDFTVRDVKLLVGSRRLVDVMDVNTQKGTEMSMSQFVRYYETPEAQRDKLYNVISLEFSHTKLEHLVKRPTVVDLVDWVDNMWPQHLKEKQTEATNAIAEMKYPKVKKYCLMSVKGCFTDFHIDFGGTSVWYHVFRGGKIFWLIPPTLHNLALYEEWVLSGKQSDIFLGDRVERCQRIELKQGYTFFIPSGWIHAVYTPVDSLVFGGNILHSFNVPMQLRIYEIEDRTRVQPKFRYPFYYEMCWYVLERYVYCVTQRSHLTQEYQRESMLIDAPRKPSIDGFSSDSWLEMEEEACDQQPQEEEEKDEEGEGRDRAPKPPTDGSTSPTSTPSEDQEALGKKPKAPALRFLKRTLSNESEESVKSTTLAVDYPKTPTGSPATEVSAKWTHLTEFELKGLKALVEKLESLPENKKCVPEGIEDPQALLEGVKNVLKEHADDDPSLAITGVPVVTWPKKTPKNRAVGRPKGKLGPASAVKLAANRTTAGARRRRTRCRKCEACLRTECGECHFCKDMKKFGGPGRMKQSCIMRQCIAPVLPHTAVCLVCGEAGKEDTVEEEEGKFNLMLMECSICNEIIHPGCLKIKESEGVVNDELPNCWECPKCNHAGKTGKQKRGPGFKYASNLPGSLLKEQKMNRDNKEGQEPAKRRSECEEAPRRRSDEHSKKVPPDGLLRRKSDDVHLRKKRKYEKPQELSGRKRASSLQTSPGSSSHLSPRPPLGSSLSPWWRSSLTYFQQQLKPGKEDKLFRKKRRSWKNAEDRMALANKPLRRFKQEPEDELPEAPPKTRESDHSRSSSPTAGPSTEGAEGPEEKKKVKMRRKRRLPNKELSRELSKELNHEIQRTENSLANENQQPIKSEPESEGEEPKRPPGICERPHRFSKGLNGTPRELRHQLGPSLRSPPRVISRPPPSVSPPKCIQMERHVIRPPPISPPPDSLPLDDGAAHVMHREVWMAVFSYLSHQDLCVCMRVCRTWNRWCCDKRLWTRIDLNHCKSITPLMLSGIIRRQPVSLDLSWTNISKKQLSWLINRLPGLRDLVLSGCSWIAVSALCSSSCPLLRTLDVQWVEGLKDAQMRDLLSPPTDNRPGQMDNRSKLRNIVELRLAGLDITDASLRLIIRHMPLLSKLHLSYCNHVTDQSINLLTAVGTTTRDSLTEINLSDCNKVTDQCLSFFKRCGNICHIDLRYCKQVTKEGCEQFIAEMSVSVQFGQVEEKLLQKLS

In experiment [3] the target is BCOR (endogenous wild type, K562) (human (endogenous in K562)) (UniProt Q6W2J9).
Experiment [4] deals with BCOR HA-PUFD (1635-1755aa) (human) (UniProt Q6W2J9).
For experiment [5], the target named is BCOR HA-CT (1462-1755aa) (human) (UniProt Q6W2J9).

Turning to “BCOR (endogenous wild type, K562) (from UniProt Q6W2J9 1-1755)”, the binding result in experiment [1] and in experiment [2] was “binds” throughout. In the case of “BCOR HA-CT (1462-1755aa) (from UniProt Q6W2J9 1462-1755) (domain or fragment)”, the binding result in experiment [2] is given as “binds”. Consider “PCGF1 (endogenous) (from UniProt Q9BSM1 1-259)”, for which the binding result in experiment [3], in experiment [4] and in experiment [5] was “binds” in each case. Consider “USP7 (endogenous) (from UniProt Q93009 1-1102)”, for which the binding result in experiment [3] is recorded as “binds”.

B1: KDM2B (endogenous) (protein, UniProt Q8NHM5 1-1336)
chain: MAGPQMGGSAEDHPPRKRHAAEKQKKKTVIYTKCFEFESATQRPIDRQRYDENEDLSDVEEIVSVRGFSLEEKLRSQLYQGDFVHAMEGKDFNYEYVQREALRVPLIFREKDGLGIKMPDPDFTVRDVKLLVGSRRLVDVMDVNTQKGTEMSMSQFVRYYETPEAQRDKLYNVISLEFSHTKLEHLVKRPTVVDLVDWVDNMWPQHLKEKQTEATNAIAEMKYPKVKKYCLMSVKGCFTDFHIDFGGTSVWYHVFRGGKIFWLIPPTLHNLALYEEWVLSGKQSDIFLGDRVERCQRIELKQGYTFFIPSGWIHAVYTPVDSLVFGGNILHSFNVPMQLRIYEIEDRTRVQPKFRYPFYYEMCWYVLERYVYCVTQRSHLTQEYQRESMLIDAPRKPSIDGFSSDSWLEMEEEACDQQPQEEEEKDEEGEGRDRAPKPPTDGSTSPTSTPSEDQEALGKKPKAPALRFLKRTLSNESEESVKSTTLAVDYPKTPTGSPATEVSAKWTHLTEFELKGLKALVEKLESLPENKKCVPEGIEDPQALLEGVKNVLKEHADDDPSLAITGVPVVTWPKKTPKNRAVGRPKGKLGPASAVKLAANRTTAGARRRRTRCRKCEACLRTECGECHFCKDMKKFGGPGRMKQSCIMRQCIAPVLPHTAVCLVCGEAGKEDTVEEEEGKFNLMLMECSICNEIIHPGCLKIKESEGVVNDELPNCWECPKCNHAGKTGKQKRGPGFKYASNLPGSLLKEQKMNRDNKEGQEPAKRRSECEEAPRRRSDEHSKKVPPDGLLRRKSDDVHLRKKRKYEKPQELSGRKRASSLQTSPGSSSHLSPRPPLGSSLSPWWRSSLTYFQQQLKPGKEDKLFRKKRRSWKNAEDRMALANKPLRRFKQEPEDELPEAPPKTRESDHSRSSSPTAGPSTEGAEGPEEKKKVKMRRKRRLPNKELSRELSKELNHEIQRTENSLANENQQPIKSEPESEGEEPKRPPGICERPHRFSKGLNGTPRELRHQLGPSLRSPPRVISRPPPSVSPPKCIQMERHVIRPPPISPPPDSLPLDDGAAHVMHREVWMAVFSYLSHQDLCVCMRVCRTWNRWCCDKRLWTRIDLNHCKSITPLMLSGIIRRQPVSLDLSWTNISKKQLSWLINRLPGLRDLVLSGCSWIAVSALCSSSCPLLRTLDVQWVEGLKDAQMRDLLSPPTDNRPGQMDNRSKLRNIVELRLAGLDITDASLRLIIRHMPLLSKLHLSYCNHVTDQSINLLTAVGTTTRDSLTEINLSDCNKVTDQCLSFFKRCGNICHIDLRYCKQVTKEGCEQFIAEMSVSVQFGQVEEKLLQKLS
For B1, the binding entry in experiment [3] and in experiment [5] was “binds” in each case.
